Assay results: paper PMC5702609
Read-outs that look alike come from different tables or passages of the source. Results are given in words; binding and its absence hold for the method and conditions named. Binding seen in cells or lysates may run through a third protein. These calls come from enrichment with a bait or labelling near it, and not all partners need be listed.

By UniProt entry, the sequences of proteins in these tests, tags left out.
UniProt P14126: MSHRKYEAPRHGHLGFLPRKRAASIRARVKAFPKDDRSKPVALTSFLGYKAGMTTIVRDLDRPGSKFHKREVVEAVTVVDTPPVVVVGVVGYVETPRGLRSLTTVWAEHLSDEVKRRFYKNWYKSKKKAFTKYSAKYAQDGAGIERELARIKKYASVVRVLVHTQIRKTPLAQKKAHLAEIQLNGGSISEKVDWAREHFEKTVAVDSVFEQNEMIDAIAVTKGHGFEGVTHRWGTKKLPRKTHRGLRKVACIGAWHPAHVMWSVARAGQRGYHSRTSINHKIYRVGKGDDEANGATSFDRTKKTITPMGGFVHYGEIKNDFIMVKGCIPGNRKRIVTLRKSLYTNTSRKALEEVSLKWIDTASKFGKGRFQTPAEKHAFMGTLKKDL

T1: TAPF-Nop53 (S. cerevisiae) (UniProt Q12080)
T1 sequence: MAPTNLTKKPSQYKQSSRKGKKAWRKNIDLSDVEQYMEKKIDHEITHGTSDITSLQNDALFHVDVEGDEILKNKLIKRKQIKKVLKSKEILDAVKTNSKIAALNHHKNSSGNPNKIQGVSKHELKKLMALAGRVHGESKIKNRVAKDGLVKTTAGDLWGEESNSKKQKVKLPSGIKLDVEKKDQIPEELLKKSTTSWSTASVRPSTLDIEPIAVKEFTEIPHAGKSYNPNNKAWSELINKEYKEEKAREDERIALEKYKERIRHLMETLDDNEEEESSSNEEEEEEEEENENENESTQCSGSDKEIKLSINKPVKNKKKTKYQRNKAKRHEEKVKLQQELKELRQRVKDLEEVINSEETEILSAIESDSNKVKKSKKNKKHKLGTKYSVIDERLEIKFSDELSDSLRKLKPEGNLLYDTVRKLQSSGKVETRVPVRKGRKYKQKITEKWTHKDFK

T2: Rrp6-FTpA (S. cerevisiae) (UniProt Q12149)
T2 sequence: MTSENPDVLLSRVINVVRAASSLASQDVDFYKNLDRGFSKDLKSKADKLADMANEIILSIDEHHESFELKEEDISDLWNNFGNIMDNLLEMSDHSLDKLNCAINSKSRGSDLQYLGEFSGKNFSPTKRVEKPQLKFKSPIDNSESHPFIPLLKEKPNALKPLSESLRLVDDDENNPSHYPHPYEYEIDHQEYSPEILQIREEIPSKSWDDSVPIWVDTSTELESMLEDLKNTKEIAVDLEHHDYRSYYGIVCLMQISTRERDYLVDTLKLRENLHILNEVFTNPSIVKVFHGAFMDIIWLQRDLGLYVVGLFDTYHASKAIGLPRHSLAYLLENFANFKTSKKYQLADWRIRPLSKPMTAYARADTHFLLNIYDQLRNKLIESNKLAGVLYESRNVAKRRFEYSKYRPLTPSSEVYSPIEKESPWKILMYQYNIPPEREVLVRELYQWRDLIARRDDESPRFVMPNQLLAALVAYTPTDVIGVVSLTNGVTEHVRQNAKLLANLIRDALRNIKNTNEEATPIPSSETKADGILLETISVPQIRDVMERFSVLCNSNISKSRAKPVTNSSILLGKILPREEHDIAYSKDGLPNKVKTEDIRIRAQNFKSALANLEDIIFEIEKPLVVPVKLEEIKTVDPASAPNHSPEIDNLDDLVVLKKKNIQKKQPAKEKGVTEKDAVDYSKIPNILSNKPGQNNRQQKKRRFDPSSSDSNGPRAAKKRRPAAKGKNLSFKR

T3: Rrp6-FTpA (S. cerevisiae), Q12149
T3 chain: T2 sequence

B1: Nog1 (protein, UniProt Q02892 1-647)
chain: MQLSWKDIPTVAPANDLLDIVLNRTQRKTPTVIRPGFKITRIRAFYMRKVKYTGEGFVEKFEDILKGFPNINDVHPFHRDLMDTLYEKNHYKISLAAISRAKSLVEQVARDYVRLLKFGQSLFQCKQLKRAALGRMATIVKKLRDPLAYLEQVRQHIGRLPSIDPNTRTLLICGYPNVGKSSFLRCITKSDVDVQPYAFTTKSLYVGHFDYKYLRFQAIDTPGILDRPTEEMNNIEMQSIYAIAHLRSCVLYFMDLSEQCGFTIEAQVKLFHSIKPLFANKSVMVVINKTDIIRPEDLDEERAQLLESVKEVPGVEIMTSSCQLEENVMEVRNKACEKLLASRIENKLKSQSRINNVLNKIHVAQPQARDDVKRTPFIPESVKNLKKYDPEDPNRRKLARDIEAENGGAGVFNVNLKDKYLLEDDEWKNDIMPEILDGKNVYDFLDPEIAAKLQALEEEEEKLENEGFYNSDDEEEIYDGFEASEVDDIKEKAAWIRNRQKTMIAEARNRKSLKNKAIMPRSKLTKSFGKMEEHMSTLGHDMSALQDKQNRAARKNRYVERGSDVVFGDQDALTASTENGVKLRQTDRLLDGVADGSMRSKADRMAKMERRERNRHAKQGESDRHNAVSLSKHLFSGKRGVGKTDFR
B2: Rrp44 (enzyme, UniProt Q08162 1-1001)
chain: MSVPAIAPRRKRLADGLSVTQKVFVRSRNGGATKIVREHYLRSDIPCLSRSCTKCPQIVVPDAQNELPKFILSDSPLELSAPIGKHYVVLDTNVVLQAIDLLENPNCFFDVIVPQIVLDEVRNKSYPVYTRLRTLCRDSDDHKRFIVFHNEFSEHTFVERLPNETINDRNDRAIRKTCQWYSEHLKPYDINVVLVTNDRLNREAATKEVESNIITKSLVQYIELLPNADDIRDSIPQMDSFDKDLERDTFSDFTFPEYYSTARVMGGLKNGVLYQGNIQISEYNFLEGSVSLPRFSKPVLIVGQKNLNRAFNGDQVIVELLPQSEWKAPSSIVLDSEHFDVNDNPDIEAGDDDDNNESSSNTTVISDKQRRLLAKDAMIAQRSKKIQPTAKVVYIQRRSWRQYVGQLAPSSVDPQSSSTQNVFVILMDKCLPKVRIRTRRAAELLDKRIVISIDSWPTTHKYPLGHFVRDLGTIESAQAETEALLLEHDVEYRPFSKKVLECLPAEGHDWKAPTKLDDPEAVSKDPLLTKRKDLRDKLICSIDPPGCVDIDDALHAKKLPNGNWEVGVHIADVTHFVKPGTALDAEGAARGTSVYLVDKRIDMLPMLLGTDLCSLKPYVDRFAFSVIWELDDSANIVNVNFMKSVIRSREAFSYEQAQLRIDDKTQNDELTMGMRALLKLSVKLKQKRLEAGALNLASPEVKVHMDSETSDPNEVEIKKLLATNSLVEEFMLLANISVARKIYDAFPQTAMLRRHAAPPSTNFEILNEMLNTRKNMSISLESSKALADSLDRCVDPEDPYFNTLVRIMSTRCMMAAQYFYSGAYSYPDFRHYGLAVDIYTHFTSPIRRYCDVVAHRQLAGAIGYEPLSLTHRDKNKMDMICRNINRKHRNAQFAGRASIEYYVGQVMRNNESTETGYVIKVFNNGIVVLVPKFGVEGLIRLDNLTEDPNSAAFDEVEYKLTFVPTNSDKPRDVYVFDKVEVQVRSVMDPITSKRKAELLLK
B3: Mpp6 (protein, UniProt P53725 1-186)
chain: MSANNGVTGKLSSRVMNMKFMKFGKTDDEESSNSNTPSNINSDVEPIEQKGKLFGLDDSAWDLNSYKDDLKKISGKEKKKVKRVVYKKRPNLIISNVGYSELRKPEGVISGRKTFGDNSDDSGSRKRKFDEGEQNEDEKRDAKDKEFTGSQDDGEDEYDLDKLFKDSIKKKKTNHNGKNKNRNSKK
B4: Mtr4 helicase, P47047 1-1073 (enzyme)
chain: MDSTDLFDVFEETPVELPTDSNGEKNADTNVGDTPDHTQDKKHGLEEEKEEHEENNSENKKIKSNKSKTEDKNKKVVVPVLADSFEQEASREVDASKGLTNSETLQVEQDGKVRLSHQVRHQVALPPNYDYTPIAEHKRVNEARTYPFTLDPFQDTAISCIDRGESVLVSAHTSAGKTVVAEYAIAQSLKNKQRVIYTSPIKALSNQKYRELLAEFGDVGLMTGDITINPDAGCLVMTTEILRSMLYRGSEVMREVAWVIFDEVHYMRDKERGVVWEETIILLPDKVRYVFLSATIPNAMEFAEWICKIHSQPCHIVYTNFRPTPLQHYLFPAHGDGIYLVVDEKSTFREENFQKAMASISNQIGDDPNSTDSRGKKGQTYKGGSAKGDAKGDIYKIVKMIWKKKYNPVIVFSFSKRDCEELALKMSKLDFNSDDEKEALTKIFNNAIALLPETDRELPQIKHILPLLRRGIGIHHSGLLPILKEVIEILFQEGFLKVLFATETFSIGLNMPAKTVVFTSVRKWDGQQFRWVSGGEYIQMSGRAGRRGLDDRGIVIMMIDEKMEPQVAKGMVKGQADRLDSAFHLGYNMILNLMRVEGISPEFMLEHSFFQFQNVISVPVMEKKLAELKKDFDGIEVEDEENVKEYHEIEQAIKGYREDVRQVVTHPANALSFLQPGRLVEISVNGKDNYGWGAVVDFAKRINKRNPSAVYTDHESYIVNVVVNTMYIDSPVNLLKPFNPTLPEGIRPAEEGEKSICAVIPITLDSIKSIGNLRLYMPKDIRASGQKETVGKSLREVNRRFPDGIPVLDPVKNMKIEDEDFLKLMKKIDVLNTKLSSNPLTNSMRLEELYGKYSRKHDLHEDMKQLKRKISESQAVIQLDDLRRRKRVLRRLGFCTPNDIIELKGRVACEISSGDELLLTELIFNGNFNELKPEQAAALLSCFAFQERCKEAPRLKPELAEPLKAMREIAAKIAKIMKDSKIEVVEKDYVESFRHELMEVVYEWCRGATFTQICKMTDVYEGSLIRMFKRLEELVKELVDVANTIGNSSLKEKMEAVLKLIHRDIVSAGSLYL
B5: Cic1/Nsa3 (protein, UniProt P38779 1-376)
chain: MAKKSNSKKSTPVSTPSKEKKKVIEKKSSTAIPRERVIKAVNELIKFTSKPQDENNEEGNNGKKNLLEDDEEELKKDLQLIVVNNKSFTGTSKSFKLKLLNVKHSFYKPWKEASATAVKDFKVLLILKDSDIKKVSEDDLFDQLDSEGIKVDEIICGKDLKTVYKAYEARNAFISQFSLILADDSIVTSLPKLMGGKAYNKVETTPISIRTHANKEFSLTTLTNNIKKVYMNQLPVKLPRGTTLNVHLGNLEWLRPEEFVDNVELISEQLIKAYQIRSIFIKTNRSPVLPLYYNQDVLDELEAKKDKIEETHEDDMVTIDGVQVHLSTFNKGLMEIANPSELGSIFSKQINNAKKRSSSELEKESSESEAVKKAKS
B6: Nop15 (protein, UniProt P53927 1-220)
chain: MVKSTSKTSTKETVTKQPTEEKPIQEKEELALETSSSSSDEEDEKDEDEIEGLAASDDEQSGTHKIKRLNPKKQANEKKSKDKKTLEEYSGIIYVSRLPHGFHEKELSKYFAQFGDLKEVRLARNKKTGNSRHYGFLEFVNKEDAMIAQESMNNYLLMGHLLQVRVLPKGAKIEKLYKYKKRVLVEKGITKPVKQLKDNMKQKHEERIKKLAKSGIEFKW
B7: Rlp7 (protein, UniProt P40693 1-322)
chain: MSSTQDSKAQTLNSNPEILLRKRRNADRTRIERQELAKKKREEQIKKKRSNKNKFVRAESIVAKTLATSREKERIKRVSILEDKKAKNETQHIASGKDFILKITEKANGAEENSVDLEETEEEEDDGLIREKTTYDGKPALLFIVRVRGPLAVNIPNKAFKILSLLRLVETNTGVFVKLTKNVYPLLKVIAPYVVIGKPSLSSIRSLIQKRGRIIYKGENEAEPHEIVLNDNNIVEEQLGDHGIICVEDIIHEIATMGESFSVCNFFLQPFKLNREVSGFGSLNRLRKIKQREAESRTRQFSNAATAPVIEVDIDSLLAKLN

Assays:
[1] = molecular target: T1, TAPF-Nop53 (S. cerevisiae); assay: affinity purification with mass spectrometry + co-sedimentation; pre-60S particles (ribonucleoprotein with 7S pre-rRNA) tandem affinity purified via TAPF-Nop53 from yeast, incubated with ATP only (mock), 10-40% glycerol gradient in 100 mM NaCl, 50 mM Tris pH 7.5, 3 mM MgCl2, 0.01% NP-40; fractions by SDS-PAGE and Coomassie, western blot (Rpl3, Cic1, Nop7) and mass spectrometry
[2] = molecular target: T1, TAPF-Nop53 (S. cerevisiae); assay: as above; remark: listed apart in the source
[3] = molecular target: T2, Rrp6-FTpA (S. cerevisiae); assay: affinity purification with mass spectrometry; tandem affinity purification of Rrp6-FTpA from yeast lysate (IgG beads, TEV elution at 16 °C, Flag beads, Flag peptide elution); 100 mM NaCl, 50 mM Tris pH 7.5, 1.5 mM MgCl2, 5% glycerol, NP-40; eluate by SDS-PAGE and Coomassie, bands identified by mass spectrometry
[4] = molecular target: T3, Rrp6-FTpA (S. cerevisiae), Q12149; assay: as above; details: remark: other sources report otherwise

binding [2]	further results	Molecule
	binding [1]: binds	Rpl3 (from UniProt P14126 1-387)
binds		B1
	binding [3]: binds	B2
	binding [3]: binds	B3
	binding [4]: binds	B4
binds		B5
binds		B6
binds		B7
